Data on 1 molecule can be found in PMC7349836.

By UniProt entry, the sequences of proteins in these tests, tags left out.
UniProt P11798: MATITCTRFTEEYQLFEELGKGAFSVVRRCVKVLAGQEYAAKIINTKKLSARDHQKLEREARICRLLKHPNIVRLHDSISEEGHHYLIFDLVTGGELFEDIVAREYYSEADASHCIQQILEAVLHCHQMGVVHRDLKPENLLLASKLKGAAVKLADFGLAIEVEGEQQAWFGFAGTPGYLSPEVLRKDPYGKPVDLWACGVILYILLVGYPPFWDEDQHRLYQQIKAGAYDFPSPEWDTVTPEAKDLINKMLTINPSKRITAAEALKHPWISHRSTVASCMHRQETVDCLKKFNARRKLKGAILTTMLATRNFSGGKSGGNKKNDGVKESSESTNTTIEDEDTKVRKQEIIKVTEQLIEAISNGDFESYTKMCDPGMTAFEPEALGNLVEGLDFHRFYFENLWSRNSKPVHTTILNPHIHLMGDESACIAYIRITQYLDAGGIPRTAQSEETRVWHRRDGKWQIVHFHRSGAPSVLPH

No constants are given. Whether binding was seen depends on the method and setting. Binding seen in cells or lysates may run through a third protein. Some binding calls cover weakened binding; strength is not graded here.

This test deals with Camk2α, endogenous in cultured mouse hippocampal neurons (mouse (endogenous in hippocampal neurons of C57BL6 mice)) (UniProt P11798). The experiment in a line: proximity ligation; Duolink in cultured mouse hippocampal neurons with mouse anti-Fbp and rabbit anti-Camk2α; control neurons and 10 s after chemical LTP induction.

B1: Fbp2, endogenous in cultured mouse hippocampal neurons (enzyme, UniProt P70695 1-339)
chain: MTDRSPFETDMLTLTRYVMEKGRQAKGTGELTQLLNSMLTAIKAISSAVRKAGLANLYGISGSVNVTGDEVKKLDVLSNSLVINMLQSSYSTCVLVSEENKEAVITAQERRGKYVVCFDPLDGSSNIDCLASIGTIFAIYRKTTEDEPSEKDALQPGRNIVAAGYALYGSATLVALSTGQGVDLFMLDPALGEFVLVEKDVRIKKKGKIFSLNEGYAKYFDAATAEYVQKKKFPEDGSEPYGARYVGSMVADVHRTLVYGGIFMYPANQKSPNGKLRLLYECNPVAYIIEQAGGMATTGTQPVLDVKPESIHQRVPLILGSPEDVQEYLSCVQRNQAGR
Take B1: the binding result is “binds”.
